From ChEMBL document CHEMBL3988442, “University of Dundee, Small-Polar-MMV Screening Library” (2021).

Mtb growth Cornell: 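Whole-cell assay for inhibitors of Mycobacterium tuberculosis growth, labelled Cornell in the record; the read-out is not stated. The concentration is filed as 10 mM, unlikely as a test dose, so the dose is not known. The record gives no direction; compounds strong in two other growth screens of this library score well above the rest, so higher reads as stronger inhibition. Size under these conditions: about 53,000 compounds, about 900 of them at 50% or above in at least one test.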
Mtb heat-shock: 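Assay on Mycobacterium tuberculosis, filed only as a heat shock assay from Cornell; the read-out is not stated. The concentration is filed as 10 mM, unlikely as a test dose, so the dose is not known. The record gives no direction; compounds that gave an IC50 in retests scored well above the rest, so higher reads as stronger inhibition. Of about 69,000 compounds tested this way, about 930 (1.4%) reached 50% or more in at least one test.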

Each number is a percent effect as filed. The controls that fix the scale are not given in the record; negative values are as filed. The compounds are a random part of those screened. A dash means the value is not listed here; it may have been measured.

structure	Mtb growth Cornell	Mtb heat-shock
Cn1nc(CNC(=O)C2CCCCC2)cc1C1CC1	-2.725%	-2.477%
COC(=O)CNC(=O)CSCc1nc(O)c2cc(C(C)C)sc2n1	-	11.26%
Cc1nc(N)nc(C)c1Cc1nc(C2CC2)n[nH]1	10.06%	-14.23%
Cc1c(C(=O)O)nnn1Cc1cccc(C(F)(F)F)c1	-1.533%	15.48%
Cn1ccnc1C(=O)N1CCOC(Cc2ccccc2Cl)C1 (stereo not given)	-33.68%	-22.06%
CN(CC(=O)NCC(CCO)c1ccccc1)C(=O)OC(C)(C)C (stereo not given)	-25.82%	-15.33%
O=C(Nc1ccc(N2CCCC2)nc1)N1CCc2ccccc2C1	43.9%	58.68%
CNc1nccc(-c2cn(C)nc2C)n1	-	24.25%
O=C(O)C(F)(F)F.[H][C@@]12COC[C@]1([H])[C@@H](OCC(=O)N(C)C)CN2Cc1ccoc1	0.7929%	6.715%
c1ncc(Nc2nccc(C3CCCCN3CC3CCCCC3)n2)cn1 (stereo not given)	-	0.5293%
CNS(=O)(=O)Cc1cccc(CNc2ccc(C#N)cn2)c1	12.61%	-0.5358%
Cn1cc(CN2CC(C(=O)Nc3ccccc3)C3(CCOCC3)C2)cn1.O=C(O)C(F)(F)F (stereo not given)	44.79%	-6.447%
Cc1ccc(S(=O)(=O)N2CCC(S(C)(=O)=O)CC2)cc1C	15.91%	9.076%
O=C(O)CNc1cc(-c2nccnc2N2CCCC2)c2cc[nH]c2n1	-3.37%	1.606%
COc1ccc(CC(=O)N2CCCC2c2nc(C)c(C)c(O)n2)cc1 (stereo not given)	-30.09%	-7.041%
CC(C)CN1CCC2(C1)CN(c1ncccn1)C2.O=C(O)C(F)(F)F	-	-7.612%
CCC(NC(=O)CC(F)(F)F)c1ccccc1OCC(=O)N1CCCC1 (stereo not given)	14.85%	39.16%
CC(C)CN1CCc2[nH]cnc2C12CCN(C(=O)c1cncn1C)CC2	33.41%	-5.903%
O=C(NCCN1CCOCC1)c1ccn(COc2ccc(F)cc2)n1	-	-23.45%
COCCN(C/C=C/c1ccccc1)Cc1ccccn1	-6.483%	61.37%
COC(=O)c1cc(C(=O)N2CCCCCC2)n(-c2ccccc2)n1	-	-10.42%
COc1ccc(CN2CCN(C(=O)c3ccc(C)n3C)CC2)cc1	16.13%	-21.34%
Cc1ccc(F)cc1C(=O)N1C[C@@H](CN2CCOCC2)[C@@H](CO)C1	-14.1%	6.691%
CCC(=O)Nc1c(C)nn(COc2cccc(F)c2)c1C	-35.29%	13.26%
Cc1ccc(NC2CCN(C(=O)C(C)n3cncn3)CC2)nn1 (stereo not given)	-9.873%	-5.737%
N#Cc1ccsc1N1CCC(Sc2ncc[nH]2)C1=O (stereo not given)	-9.934%	0.2673%
CNC(=O)c1ccc(-n2c(COCC(=O)O)nc3c(C)cccc32)o1	-14.9%	5.544%
COc1ccccc1C(=O)N1CCC(Nc2ccc(C)nn2)CC1	2.292%	-3.856%
Cc1nc2c(C)cccc2cc1C(=O)N1CCC2(CCN(C)CC2)C1	13.39%	15.06%
NC(=O)c1nnn(-c2ccc(Cl)cc2)n1	-	14.56%
COCCOc1ccccc1C(=O)Nc1c(C)cnn1CC1CC1	-16.93%	-32.92%
CCn1ccnc1CNCc1ccc(C)cc1OC(C)(C)C	-2.014%	55.22%
[H][C@@]12C[C@H](C(=O)N3CCCC3)[C@@]([H])(CN(C(=O)Nc3ccccc3)C1)O2	-26.28%	-25.79%
CC(CO)(NC(=O)Nc1nnc(C2CC2)s1)C1CCCCC1 (stereo not given)	-	-1.427%
COCC(=O)N1CCC(c2nc3ccc(-c4ccccc4)cn3n2)CC1	20.1%	-31.66%
CN1CC2(CCN(Cc3ccoc3)CC2)COc2ccccc2S1(=O)=O.O=C(O)C(F)(F)F	-2.692%	-17.93%
Cn1nc(C(=O)N2CCSCC2)cc1NC(=O)c1ccco1	-0.629%	16.22%
CCc1nc(C2CCCN2C(=O)C2=COCC2)no1 (stereo not given)	-	1.088%
Cc1ccc(OCC(=O)NCc2ccco2)nc1	-27.57%	-18.04%
Cl.O=C(CCn1c(C(F)(F)F)cc2cccnc21)N1CCOCC1	-10.92%	-3.594%
CC(=O)N1CCC(c2nnc3ccc(C(=O)NCCN(C)C)cn23)C1 (stereo not given)	5.179%	-4.451%
[H][C@]12CC[C@]([H])(CN(Cc3ccccc3)C1)N(C(=O)c1ccccc1C#N)C2	-	-4.315%
Cc1ccc(-n2cc(CN3CCOCC3)c(-c3cccc(C)c3)n2)cc1	-	101.4%
COc1cc(NC(=O)c2ccc(Cl)cc2F)c(C(=O)N(C)C)cc1OC	-17.75%	9.449%
Cc1cnn(CC(C)NCc2ccc(OCC(N)=O)cc2)c1 (stereo not given)	-21.75%	-17.96%
COc1cccc(C(C(=O)O)N2CCSCC2)c1F (stereo not given)	-	-15.99%
COc1ccccc1-c1cc(C(F)(F)F)c2c(C)nn(CC(=O)O)c2n1	-	-22.51%
CN1CCCC(CNC(=O)CN(C)S(=O)(=O)c2cccnc2)C1 (stereo not given)	-36.31%	-1.72%
COC(=O)CNC(=O)c1cn(Cc2ccccc2F)nn1	-13.91%	14.44%
COc1ccc2nnc(CCC(=O)Nc3nc(C)c(C)s3)n2n1	11.91%	-4.857%
Cc1nc(C)n(CC2CCCN2Cc2nc(-c3ccco3)no2)n1 (stereo not given)	-	0%
CCc1cc(=O)n(CC(=O)N2CCC(C)CC2)c(-c2cccc(F)c2)n1	-26.95%	10.04%
Cc1cccc2c1nc1n2[C@@H](CNC(=O)c2ccncc2)COC1	2.489%	-10.68%
Cc1ccc(C(=O)N2CCC(C(F)(F)F)CC2)cc1N1CCNC1=O	-11.88%	-14.79%
Cc1cnn(CC2CCCN2Cc2nccn2C)c1 (stereo not given)	-	15.87%
CCc1ccc(S(=O)(=O)N2CC[C@@](O)(CCOC)[C@H](C)C2)cc1	16.69%	-34.65%
COCc1cccc(NC(=O)NCc2ncc(C)c(OC)c2C)c1	25.03%	-1.4%
Cc1nccc(C(=O)N2CCCC2c2noc(C(C)C)n2)n1 (stereo not given)	-	-41.62%
Cc1ccc(CC(=O)N2CCN(c3nccs3)CC2)s1	-	-16.81%
CNC(=O)c1cc2c(nc1N(C)C)CCN(c1ncccn1)CC2.O=C(O)C(F)(F)F	-0.2281%	16.93%
CC(=O)c1cccc(NC(=O)CN2CCCCC2C(=O)N2CCCC2)c1 (stereo not given)	7.93%	-4.278%
O=C(O)C(F)(F)F.O=C(O)C(F)(F)F.c1cc(CN2CCCC3(COCCN(Cc4c[nH]nn4)C3)C2)cs1 (stereo not given)	19.27%	-15.22%
O=C(NCc1nnnn1-c1ccccc1)c1ccc(C2CCCO2)s1 (stereo not given)	-11.77%	11.96%
COCCN1CCC(CN(Cc2ccncc2)C2CCCCC2)CC1	24.63%	7.15%
CCCN1CCCN(CCCOc2cccc(C#N)c2)CC1	-	1.259%
CCO[C@H]1CCN(S(=O)(=O)c2cn(C)cn2)[C@H]1Cc1ccccc1.O=C(O)C(F)(F)F	14.63%	-10.78%

For reference, 7 entries once more:

* COc1ccccc1C(=O)N1CCC(Nc2ccc(C)nn2)CC1 : Mtb growth Cornell: 2.292%; Mtb heat-shock: -3.856%
* CNC(=O)c1cc2c(nc1N(C)C)CCN(c1ncccn1)CC2.O=C(O)C(F)(F)F : Mtb growth Cornell: -0.2281%; Mtb heat-shock: 16.93%
* CN1CC2(CCN(Cc3ccoc3)CC2)COc2ccccc2S1(=O)=O.O=C(O)C(F)(F)F : Mtb growth Cornell: -2.692%; Mtb heat-shock: -17.93%
* c1ncc(Nc2nccc(C3CCCCN3CC3CCCCC3)n2)cn1 (stereo not given) : Mtb heat-shock: 0.5293%
* COc1ccc(CN2CCN(C(=O)c3ccc(C)n3C)CC2)cc1 : Mtb growth Cornell: 16.13%; Mtb heat-shock: -21.34%
* CNc1nccc(-c2cn(C)nc2C)n1 : Mtb heat-shock: 24.25%
* CCC(=O)Nc1c(C)nn(COc2cccc(F)c2)c1C : Mtb growth Cornell: -35.29%; Mtb heat-shock: 13.26%